Experimental data from patent US20250011427A1 (CONCEPT TO MEDICINE BIOTECH, published 2025).
Positions count from the first letter of the chain named. Results are given in words; binding and its absence hold for the method and conditions named. Some binding calls cover weakened binding; strength is not graded here.

Amino acid sequences for entries named in this document (tags omitted). A change or cut given only in a name is not applied to a line headed by its entry.
UniProt P07766: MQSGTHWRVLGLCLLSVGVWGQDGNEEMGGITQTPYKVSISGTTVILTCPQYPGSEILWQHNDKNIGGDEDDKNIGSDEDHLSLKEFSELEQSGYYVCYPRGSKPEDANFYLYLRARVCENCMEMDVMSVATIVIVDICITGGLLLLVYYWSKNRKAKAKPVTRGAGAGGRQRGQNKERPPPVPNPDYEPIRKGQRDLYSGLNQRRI
UniProt P04234: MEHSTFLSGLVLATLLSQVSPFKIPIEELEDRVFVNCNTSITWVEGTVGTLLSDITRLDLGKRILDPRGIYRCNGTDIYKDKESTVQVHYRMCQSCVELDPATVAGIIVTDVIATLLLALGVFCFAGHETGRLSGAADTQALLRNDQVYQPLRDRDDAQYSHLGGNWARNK

B1: Hu155A9B1-2 (antibody, V domains shown)
VH: EVQLQESGPGLVKPSETLSLTCTVSGGSISSYNVHWVRQPPGKGLEWIGRVRYNGDTSYNSALKSRVTISRDTSKNQFSLKLSSVTAADTAVYYCARGPYGGSSEPLFDYWGQGTMVTVSS
VL: DIQMTQSPSSLSASVGDRVTITCKASQNINKYLNWYQQKPGKAPRLLIYTTNNLQTGVPSRFSGSGSGTDFTLTISSLQPEDFATYYCLQHNSGYTFGQGTKLEIK
B2: Hu192A7B9-17 (antibody, V domains shown)
VH: EVQLQESGPGLVKPSETLSLTCTVSGFSISSYNVHWVRQPPGKGLEWMGRMRYNGDTSYNSALKSRLTISRDTSKNQVSLKLSSVTAADTAVYYCTRGPRGGYYSALFDYWGQGTMVTVSS
VL: B1 VL with K31R, R45K, Y49S, T50I, T51A, N53S, V58I, G94W
B3: Hu155A9B1-8 (antibody, V domains shown)
VH: B1 VH
VL: B1 VL with Y36F, V58I
B4: Hu192A7B9-1 (antibody, V domains shown)
VH: B2 VH with F27G, V37I, M48I, L67V, R71V, V78F, T96A
VL: B1 VL with K31R, R45K, T50I, T51A, N53S, G94W
B5: Hu192A7B9-18 (antibody, V domains shown)
VH: B2 VH with I29L, S30T
VL: B1 VL with K31R, R45K, Y49S, T50I, T51A, N53S, V58I, G94W
B6: Hu192A7B9-21 (antibody, V domains shown)
VH: B2 VH with F27G, V78F, T96A
VL: B1 VL with K31R, R45K, L46V, Y49S, T50I, T51A, N53S, V58I, Y87F, G94W
B7: Hu192A7B9-20 (antibody, V domains shown)
VH: B2 VH with F27G, M48I, L67V, V78F, T96A
VL: B1 VL with K31R, R45K, L46V, Y49S, T50I, T51A, N53S, V58I, Y87F, G94W
B8: Hu155A9B1-17 (antibody, V domains shown)
VH: B1 VH with G27F, I48M, V67L, F78A, A96T
VL: B1 VL with Y36F, V58I, Y87F
B9: Hu155A9B1-9 (antibody, V domains shown)
VH: B1 VH with I48M, V67L
VL: B1 VL with Y36F, V58I
B10: Hu192A7B9-2 (antibody, V domains shown)
VH: B2 VH with F27G, M48I, L67V, V78F, T96A
VL: B1 VL with K31R, R45K, T50I, T51A, N53S, G94W
B11: Hu155A9B1-3 (antibody, V domains shown)
VH: B1 VH with I48M, V67L
VL: B1 VL
B12: Hu192A7B9-5 (antibody, V domains shown)
VH: B2 VH
VL: B1 VL with K31R, R45K, T50I, T51A, N53S, G94W
B13: Hu192A7B9-23 (antibody, V domains shown)
VH: B2 VH
VL: B1 VL with K31R, R45K, L46V, Y49S, T50I, T51A, N53S, V58I, Y87F, G94W
B14: Hu155A9B1-7 (antibody, V domains shown)
VH: B1 VH with V37I, R71V
VL: B1 VL with Y36F, V58I
B15: Hu192A7B9-24 (antibody, V domains shown)
VH: B2 VH with I29L, S30T
VL: B1 VL with K31R, R45K, L46V, Y49S, T50I, T51A, N53S, V58I, Y87F, G94W
B16: Hu192A7B9-14 (antibody, V domains shown)
VH: B2 VH with F27G, M48I, L67V, V78F, T96A
VL: B1 VL with K31R, R45K, Y49S, T50I, T51A, N53S, V58I, G94W
B17: Hu155A9B1-18 (antibody, V domains shown)
VH: B1 VH with G27F, I29L, S30T, I48M, V67L, F78A, A96T
VL: B1 VL with Y36F, V58I, Y87F
B18: Hu155A9B1-13 (antibody, V domains shown)
VH: B1 VH with V37I, R71V
VL: B1 VL with Y36F, V58I, Y87F
B19: Hu155A9B1-15 (antibody, V domains shown)
VH: B1 VH with I48M, V67L
VL: B1 VL with Y36F, V58I, Y87F
B20: Hu192A7B9-22 (antibody, V domains shown)
VH: B2 VH with F27G, V78F
VL: B1 VL with K31R, R45K, L46V, Y49S, T50I, T51A, N53S, V58I, Y87F, G94W
B21: Hu155A9B1-5 (antibody, V domains shown)
VH: B1 VH with G27F, I48M, V67L, F78A, A96T
VL: B1 VL
B22: Hu192A7B9-8 (antibody, V domains shown)
VH: B2 VH with F27G, M48I, L67V, V78F, T96A
VL: B1 VL with K31R, R45K, Y49S, T50I, T51A, N53S, G94W
B23: Hu155A9B1-4 (antibody, V domains shown)
VH: B1 VH with I48M, V67L, A96T
VL: B1 VL
B24: Hu192A7B9-4 (antibody, V domains shown)
VH: B2 VH with F27G, V78F
VL: B1 VL with K31R, R45K, T50I, T51A, N53S, G94W
B25: Hu192A7B9-7 (antibody, V domains shown)
VH: B2 VH with F27G, V37I, M48I, L67V, R71V, V78F, T96A
VL: B1 VL with K31R, R45K, Y49S, T50I, T51A, N53S, G94W
B26: Hu192A7B9-3 (antibody, V domains shown)
VH: B2 VH with F27G, V78F, T96A
VL: B1 VL with K31R, R45K, T50I, T51A, N53S, G94W
B27: Hu192A7B9-10 (antibody, V domains shown)
VH: B2 VH with F27G, V78F
VL: B1 VL with K31R, R45K, Y49S, T50I, T51A, N53S, G94W
B28: Hu192A7B9-13 (antibody, V domains shown)
VH: B2 VH with F27G, V37I, M48I, L67V, R71V, V78F, T96A
VL: B1 VL with K31R, R45K, Y49S, T50I, T51A, N53S, V58I, G94W
B29: Hu155A9B1-14 (antibody, V domains shown)
VH: B1 VH
VL: B1 VL with Y36F, V58I, Y87F
B30: Hu192A7B9-6 (antibody, V domains shown)
VH: B2 VH with I29L, S30T
VL: B1 VL with K31R, R45K, T50I, T51A, N53S, G94W
B31: Hu192A7B9-16 (antibody, V domains shown)
VH: B2 VH with F27G, V78F
VL: B1 VL with K31R, R45K, Y49S, T50I, T51A, N53S, V58I, G94W
B32: Hu192A7B9-15 (antibody, V domains shown)
VH: B2 VH with F27G, V78F, T96A
VL: B1 VL with K31R, R45K, Y49S, T50I, T51A, N53S, V58I, G94W
B33: Hu192A7B9-11 (antibody, V domains shown)
VH: B2 VH
VL: B1 VL with K31R, R45K, Y49S, T50I, T51A, N53S, G94W
B34: Hu155A9B1-12 (antibody, V domains shown)
VH: B1 VH with G27F, I29L, S30T, I48M, V67L, F78A, A96T
VL: B1 VL with Y36F, V58I
B35: Hu192A7B9-19 (antibody, V domains shown)
VH: B2 VH with F27G, V37I, M48I, L67V, R71V, V78F, T96A
VL: B1 VL with K31R, R45K, L46V, Y49S, T50I, T51A, N53S, V58I, Y87F, G94W
B36: Hu155A9B1-10 (antibody, V domains shown)
VH: B1 VH with I48M, V67L, A96T
VL: B1 VL with Y36F, V58I
B37: Hu155A9B1-11 (antibody, V domains shown)
VH: B1 VH with G27F, I48M, V67L, F78A, A96T
VL: B1 VL with Y36F, V58I
B38: Hu192A7B9-9 (antibody, V domains shown)
VH: B2 VH with F27G, V78F, T96A
VL: B1 VL with K31R, R45K, Y49S, T50I, T51A, N53S, G94W
B39: Hu192A7B9-12 (antibody, V domains shown)
VH: B2 VH with I29L, S30T
VL: B1 VL with K31R, R45K, Y49S, T50I, T51A, N53S, G94W
B40: Hu155A9B1-6 (antibody, V domains shown)
VH: B1 VH with G27F, I29L, S30T, I48M, V67L, F78A, A96T
VL: B1 VL
B41: Hu155A9B1-16 (antibody, V domains shown)
VH: B1 VH with I48M, V67L, A96T
VL: B1 VL with Y36F, V58I, Y87F

target: human CD3 protein (human) (UniProt P07766+P04234); test: ELISA

binding, binds:
B1
B2
B3
B4
B5
B6
B7
B8
B9
B10
B11
B12
B13
B14
B15
B16
B17
B18
B19
B20
B21
B22
B23
B24
B25
B26
B27
B28
B29
B30
B31
B32
B33
B34
B35
B36
B37
B38
B39
B40
B41
